The numbers were not newly measured in patent US10179767B2 (GENENTECH, INC., priority 2015, dated 2019), which cites them from elsewhere.

The conditions of the data set: administered topically (Lidoderm patch); cited from earlier work.

With `CCN(CC)CC(=O)Nc1c(C)cccc1C` [lidocaine], the plasma concentrations entry is “about 1 μM”.
